Data source: PubChem BioAssay AID1508597 (Cure First, 2020)

Purpose: 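Survival screen with siRNA in ovarian cancer cells derived from patients, with or without rucaparib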 (primary screen)
Cell system: human ovarian carcinoma lines grown from tumours: OCI-P5x (papillary serous) and OCI-C5x (clear cell)
Reagents: siRNA pool against human genes, 1.25 pmol siRNA per well
Timing: 72 h or 96 h, depending on the cell culture
Challenge: rucaparib 20 µM (about IC30) or vehicle, present until read-out
Rucaparib or vehicle: Vehicle
Cell line: OCI-P5x (serous)
Measured: 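ATP luminescence measured at 72 or 96 h according to the culture, then normalised and expressed as percent viability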
Reading the numbers: viability, normalised: higher = more viable cells remaining
Active means: 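Active when normalised viability falls below 80 percent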
Meaning of the calls: active = viability under 80%; inactive = viability 80% or more
This is an unselected part of the about 2,100 reagents, under one of the conditions tested. 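Calls flag viability under 80% in either arm, not effects specific to rucaparib; the reference for percent is not stated.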 Entries without a mark were called inactive. The record does not give: the 100% reference.

MED8 (mediator complex subunit 8), technical replicate 1
- viability, normalised (%): 80.2

MED8 (mediator complex subunit 8), technical replicate 2
- viability, normalised (%): 90.8

MED8 (mediator complex subunit 8), technical replicate 3
- viability, normalised (%): 85.8

ACTG1 (actin gamma 1), technical replicate 1
- viability, normalised (%): 69.9 (active)

ACTG1 (actin gamma 1), technical replicate 2
- viability, normalised (%): 73.5 (active)

ACTG1 (actin gamma 1), technical replicate 3
- viability, normalised (%): 63.5 (active)

ZKSCAN2 (zinc finger with KRAB and SCAN domains 2), technical replicate 1
- viability, normalised (%): 78.3 (active)

ZKSCAN2 (zinc finger with KRAB and SCAN domains 2), technical replicate 2
- viability, normalised (%): 88.7

ZKSCAN2 (zinc finger with KRAB and SCAN domains 2), technical replicate 3
- viability, normalised (%): 82.2

USB1 (U6 snRNA biogenesis phosphodiesterase 1), technical replicate 1
- viability, normalised (%): 67.8 (active)

USB1 (U6 snRNA biogenesis phosphodiesterase 1), technical replicate 2
- viability, normalised (%): 74 (active)

USB1 (U6 snRNA biogenesis phosphodiesterase 1), technical replicate 3
- viability, normalised (%): 80.5

MPP2 (MAGUK p55 scaffold protein 2), technical replicate 1
- viability, normalised (%): 97.1

MPP2 (MAGUK p55 scaffold protein 2), technical replicate 2
- viability, normalised (%): 101

MPP2 (MAGUK p55 scaffold protein 2), technical replicate 3
- viability, normalised (%): 93.5

MAPK8 (mitogen-activated protein kinase 8), technical replicate 1
- viability, normalised (%): 96.9

MAPK8 (mitogen-activated protein kinase 8), technical replicate 2
- viability, normalised (%): 75.1 (active)

MAPK8 (mitogen-activated protein kinase 8), technical replicate 3
- viability, normalised (%): 108

HIPK4 (homeodomain interacting protein kinase 4), technical replicate 1
- viability, normalised (%): 84

HIPK4 (homeodomain interacting protein kinase 4), technical replicate 2
- viability, normalised (%): 73.4 (active)

HIPK4 (homeodomain interacting protein kinase 4), technical replicate 3
- viability, normalised (%): 103

DCLRE1B (DNA cross-link repair 1B), technical replicate 1
- viability, normalised (%): 52 (active)

DCLRE1B (DNA cross-link repair 1B), technical replicate 2
- viability, normalised (%): 44.5 (active)

DCLRE1B (DNA cross-link repair 1B), technical replicate 3
- viability, normalised (%): 40.7 (active)

RBBP7 (RB binding protein 7, chromatin remodeling factor), technical replicate 1
- viability, normalised (%): 70 (active)

RBBP7 (RB binding protein 7, chromatin remodeling factor), technical replicate 2
- viability, normalised (%): 66.7 (active)

RBBP7 (RB binding protein 7, chromatin remodeling factor), technical replicate 3
- viability, normalised (%): 87.6

PAK1 (p21 (RAC1) activated kinase 1), technical replicate 1
- viability, normalised (%): 101

PAK1 (p21 (RAC1) activated kinase 1), technical replicate 2
- viability, normalised (%): 99.6

PAK1 (p21 (RAC1) activated kinase 1), technical replicate 3
- viability, normalised (%): 114

DDR2 (discoidin domain receptor tyrosine kinase 2), technical replicate 1
- viability, normalised (%): 79.9 (active)

DDR2 (discoidin domain receptor tyrosine kinase 2), technical replicate 2
- viability, normalised (%): 88.1

DDR2 (discoidin domain receptor tyrosine kinase 2), technical replicate 3
- viability, normalised (%): 115

As entered above:
Value of ZKSCAN2 (zinc finger with KRAB and SCAN domains 2), technical replicate 3 under “viability, normalised (%)”: 82.2
DCLRE1B (DNA cross-link repair 1B), technical replicate 1, viability, normalised (%) → 52 (active)
